Source: PMC10941682
These are yes or no findings as the source states them, for the method shown. In cells and extracts the contact can be indirect. Some results given as binding are weak or reduced against the parent protein; the word gives no strength.

The chains behind the UniProt entries cited, without tags or fusion partners.
UniProt Q8WV24: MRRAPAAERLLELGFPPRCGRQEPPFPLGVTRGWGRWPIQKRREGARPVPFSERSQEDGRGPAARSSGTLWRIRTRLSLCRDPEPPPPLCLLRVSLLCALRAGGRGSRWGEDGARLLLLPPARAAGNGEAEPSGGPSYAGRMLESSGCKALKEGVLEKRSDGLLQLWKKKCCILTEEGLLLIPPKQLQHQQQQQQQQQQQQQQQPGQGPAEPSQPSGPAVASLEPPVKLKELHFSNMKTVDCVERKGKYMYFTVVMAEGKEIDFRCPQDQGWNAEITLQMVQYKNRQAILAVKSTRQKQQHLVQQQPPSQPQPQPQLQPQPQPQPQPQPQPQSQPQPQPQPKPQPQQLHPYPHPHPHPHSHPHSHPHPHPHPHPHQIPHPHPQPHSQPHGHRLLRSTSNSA

Molecular target: pleckstrin homology-like domain family A member 1 (human (endogenous in IMR-32)) (UniProt Q8WV24)
Experiment: co-IP; endogenous PHLDA1 precipitated with mouse anti-PHLDA1 (sc-23866) on Dynabeads Protein G from pre-cleared lysates of control or ch14.18/CHO-treated IMR-32 cells (1 mg protein); isotype IgG2a control; eluate immunoblotted for DCAF7 and AUTS2

B1: DDB1- and CUL4-associated factor 7 (protein, UniProt P61962 1-342)
chain: MSLHGKRKEIYKYEAPWTVYAMNWSVRPDKRFRLALGSFVEEYNNKVQLVGLDEESSEFICRNTFDHPYPTTKLMWIPDTKGVYPDLLATSGDYLRVWRVGETETRLECLLNNNKNSDFCAPLTSFDWNEVDPYLLGTSSIDTTCTIWGLETGQVLGRVNLVSGHVKTQLIAHDKEVYDIAFSRAGGGRDMFASVGADGSVRMFDLRHLEHSTIIYEDPQHHPLLRLCWNKQDPNYLATMAMDGMEVVILDVRVPCTPVARLNNHRACVNGIAWAPHSSCHICTAADDHQALIWDIQQMPRAIEDPILAYTAEGEINNVQWASTQPDWIAICYNNCLEILRV
binding: binds

B2: autism susceptibility gene 2 protein (protein, UniProt Q8WXX7 1-1259)
chain: MDGPTRGHGLRKKRRSRSQRDRERRSRGGLGAGAAGGGGAGRTRALSLASSSGSDKEDNGKPPSSAPSRPRPPRRKRRESTSAEEDIIDGFAMTSFVTFEALEKDVALKPQERVEKRQTPLTKKKREALTNGLSFHSKKSRLSHPHHYSSDRENDRNLCQHLGKRKKMPKALRQLKPGQNSCRDSDSESASGESKGFHRSSSRERLSDSSAPSSLGTGYFCDSDSDQEEKASDASSEKLFNTVIVNKDPELGVGTLPEHDSQDAGPIVPKISGLERSQEKSQDCCKEPIFEPVVLKDPCPQVAQPIPQPQTEPQLRAPSPDPDLVQRTEAPPQPPPLSTQPPQGPPEAQLQPAPQPQVQRPPRPQSPTQLLHQNLPPVQAHPSAQSLSQPLSAYNSSSLSLNSLSSSRSSTPAKTQPAPPHISHHPSASPFPLSLPNHSPLHSFTPTLQPPAHSHHPNMFAPPTALPPPPPLTSGSLQVAGHPAGSTYSEQDILRQELNTRFLASQSADRGASLGPPPYLRTEFHQHQHQHQHTHQHTHQHTFTPFPHAIPPTAIMPTPAPPMFDKYPTKVDPFYRHSLFHSYPPAVSGIPPMIPPTGPFGSLQGAFQPKTSNPIDVAARPGTVPHTLLQKDPRLTDPFRPMLRKPGKWCAMHVHIAWQIYHHQQKVKKQMQSDPHKLDFGLKPEFLSRPPGPSLFGAIHHPHDLARPSTLFSAAGAAHPTGTPFGPPPHHSNFLNPAAHLEPFNRPSTFTGLAAVGGNAFGGLGNPSVTPNSMFGHKDGPSVQNFSNPHEPWNRLHRTPPSFPTPPPWLKPGELERSASAAAHDRDRDVDKRDSSVSKDDKERESVEKRHSSHPSPAPVLPVNALGHTRSSTEQIRAHLNTEAREKDKPKERERDHSESRKDLAADEHKAKEGHLPEKDGHGHEGRAAGEEAKQLARVPSPYVRTPVVESARPNSTSSREAEPRKGEPAYENPKKSSEVKVKEERKEDHDLPPEAPQTHRASEPPPPNSSSSVHPGPLASMPMTVGVTGIHPMNSISSLDRTRMMTPFMGISPLPGGERFPYPSFHWDPIRDPLRDPYRELDIHRRDPLGRDFLLRNDPLHRLSTPRLYEADRSFRDREPHDYSHHHHHHHHPLSVDPRREHERGGHLDERERLHMLREDYEHTRLHSVHPASLDGHLPHPSLITPGLPSMHYPRISPTAGNQNGLLNKTPPTAALSAPPPLISTLGGRPVSPRRTTPLSAEIRERPPSHTLKDIEAR
binding: binds
